Laboratory results published in patent US6991937B2, “Urine cystine quantitation and supersaturation assay” (Litholink Corporation, priority 2001, dated 2006).

How the values were obtained:
[1] = Effect of thiol drugs on reducing (cyanide-nitroprusside) assay in buffer saturated with cystine; details: drug added to saturated solution of cystine in buffer (FIG. 5B)
[2] = Dissolution of solid phase cystine by cystine binding drugs in normal urine; parameters: species or system human; details: ten normal urine samples, 48 hours, 37° C.
Procedure: Using the same incubation buffer and cystine-dissolving agent systems as for the initial solid phase dissolution assay given in Example 1, increasing amounts of D-penicillamine, tiopronin, or captopril were added to 25 ml aliquots of the incubation buffer. A fixed amount of cystine was added; for tiopronin and D-penicillamine, about 40 mg, and for captopril about 20 mg. […] Incubation was carried out as in Example 1. After 48 hours, the pellet and supernatant were separated by centrifugation, the pellet was dissolved in 25 ml of cystine-dissolving agent, an alkalinizing buffer of 0.1 M sodium carbonate, pH 9.9, (Sigma Aldrich Corp, Catalog # S-7795), to form a final cystine solution. Cystine concentration was determined both in the supernatant and the final cystine solution according to the procedure given in Example 3. This same protocol was repeated using the ten normal urine samples employed in the basic solid phase dissolution study described in Example 1.
Cystine concentrations in either the incubation buffer or normal urine after removal of the residual solid phase cystine, or the final cystine solution after the dissolution of the solid phase cystine in a cystine-dissolving agent as shown in Example 1 and 2 were measured using the modified cyanide-nitroprusside method for quantifying urinary cystine concentration as reported by Nakagawa and Coe (Nakagawa, Y. and Coe, F. 1999. Clin Chim Acta 289:57–68). A 100 microliter aliquot was mixed with 400 microliters of water and 1 milliliter of 0.01 M sodium phosphate buffer containing 0.15 mol/liter NaCl, pH 7.3 (PBS). After adding 300 microliters of 10% NaCN aqueous solution (w/v), the sample was incubated for twenty minutes at room temperature. Color was developed by adding 100 microliters of 20% sodium nitroprusside aqueous solution (w/v). Within 20 seconds of the sodium nitroprusside addition, color intensity was then measured at 521 nm using a Beckman spectrophotometer (model DU 640), and cystine concentration was calculated by comparison to a standard curve which was prepared with each assay. […]

CC(C)(S)[C@@H](N)C(=O)O [D-penicillamine]
effect on reaction signal of reducing assay [1]: initially reduced the reaction signal
Regression intercept, URINE [2]: 1.41 ± 0.06

CC(S)C(=O)NCC(=O)O (stereo not drawn) [tiopronin]
effect on reaction signal of reducing assay [1]: lesser increase
Regression intercept, URINE [2]: 1.51 ± 0.06

C[C@H](CS)C(=O)N1CCC[C@H]1C(=O)O [captopril]
effect on reaction signal of reducing assay [1]: large signal increase
Regression intercept, URINE [2]: 1.36 ± 0.04
